Drawing on article doi:10.1101/2020.09.17.302455, this text covers binding for one molecule.

No constants are given. Whether binding was seen depends on the method and setting. Binding calls can cover weak binding; strength is not graded here.

For this experiment, the target named is human plasma fibronectin (human). The experiment can be described thus: ELISA. (In general: In an ELISA, binding on a coated surface is turned into a signal by an enzyme label.)

B1: bone morphogenetic protein 2 (ligand, UniProt P12643 283-396)
chain: QAKHKQRKRLKSSCKRHPLYVDFSDVGWNDWIVAPPGYHAFYCHGECPFPLADHLNSTNHAIVQTLVNSVNSKIPKACCVPTELSAISMLYLDENEKVVLKNYQDMVVEGCGCR
For B1, the binding result was “binds”.
